Results taken from patent US20130236458A1 (AbbVie / Abbott, published 2013).
These are yes or no findings as the source states them, for the method shown. Some binding calls cover weakened binding; strength is not graded here.

Chains of the proteins cited; added tags and fusions are not shown. Residues count along the entry.
UniProt P35225, residues 35-146: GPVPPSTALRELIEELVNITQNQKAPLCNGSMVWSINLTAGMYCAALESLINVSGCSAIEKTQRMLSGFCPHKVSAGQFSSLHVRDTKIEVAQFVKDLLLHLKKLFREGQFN

T1: Recombinant Human IL-17 (human, UniProt Q16552 20-155, limits assumed)
T1 sequence (looked up): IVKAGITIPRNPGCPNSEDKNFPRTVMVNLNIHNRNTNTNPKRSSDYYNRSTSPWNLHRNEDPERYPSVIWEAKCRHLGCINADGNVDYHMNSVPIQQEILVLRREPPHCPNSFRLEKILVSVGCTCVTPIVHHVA


Legend:
[1] = target: Recombinant Human IL-13 (human, UniProt P35225 35-146, limits assumed); assay: SPR (Biacore)
In short: (§1)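 Antibodies or DVD-Ig captured on anti-mouse IgG (Fcγ) CM5 surface; antigen injected at 10–200 nM in HBS-EP, pH 7.4, 25 °C, 25 µL/min. kon and koff from global 1:1 Langmuir fit; KD = koff/kon.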

[2] = target: T1, Recombinant Human IL-17; assay: SPR (Biacore)
In short: as §1

binding [1] | binding [2] | Binder
binds | binds | DVD2201 (bispecific antibody, DVD-Ig; also called DVD2201H; DVD2201L) VH: EVQLVQSGAEVKKPGESVKISCKASGGSFRSYGISWVRQAPGQGLEWMGGITHFFGITDYAQKFQGRVTITADESTTTAYMELSGLTSDDTAVYYCAREPNDFWNGYYDTHDFDSWGQGTTVTVSSASTKGPSVFPLAPEVQLVQSGAEVKKPGASVKVSCKASGYTFTSYWMHWVRQAPGQGLEWIGNINPKGGSNIYNEKFQGRVTMTRDTSISTAYMELSRLRSDDTAVYYCARLDYFGDSFDLWGQGTTVTVSS VL: EIVLTQSPDFQSVTPKEKVTITCRASQNIGSELHWYQQKPDQSPKLLIKYASHSISGVPSRFSGSGSGTDFTLTINGLEAEDAATYYCHQSDTLPHTFGQGTKVDIKRTVAAPDIQMTQSPSSLSASVGDRVTITCRASQGIRNYLNWYQQKPGKAPKLLIYYASNLEVGVPSRFSGSGSGTDYTLTISSLQPEDFATYYCQQDNRFPYTFGGGTKVEIKR
binds | binds | DVD2200 (bispecific antibody, DVD-Ig; also called DVD2200H; DVD2200L) VH: EVQLVQSGAEVKKPGASVKVSCKASGYTFTSYWMHWVRQAPGQGLEWIGNINPKGGSNIYNEKFQGRVTMTRDTSISTAYMELSRLRSDDTAVYYCARLDYFGDSFDLWGQGTTVTVSSASTKGPSVFPLAPEVQLVQSGAEVKKPGESVKISCKASGGSFRSYGISWVRQAPGQGLEWMGGITHFFGITDYAQKFQGRVTITADESTTTAYMELSGLTSDDTAVYYCAREPNDFWNGYYDTHDFDSWGQGTTVTVSS VL: DIQMTQSPSSLSASVGDRVTITCRASQGIRNYLNWYQQKPGKAPKLLIYYASNLEVGVPSRFSGSGSGTDYTLTISSLQPEDFATYYCQQDNRFPYTFGGGTKVEIKRTVAAPEIVLTQSPDFQSVTPKEKVTITCRASQNIGSELHWYQQKPDQSPKLLIKYASHSISGVPSRFSGSGSGTDFTLTINGLEAEDAATYYCHQSDTLPHTFGQGTKVDIKR
